Experimental data taken from the supplement of paper PMC12067093, “Discovery and optimisation of a covalent ligand for TRIM25 and its application to targeted protein ubiquitination” (Chemical Science, 2025).
The list shows a part of the results.

Protein sequences, listed by entry. Tags and fused reporters are not part of them. Lines headed by an entry give the natural chain unless they say otherwise; changes in a name come on top.
UniProt Q04721: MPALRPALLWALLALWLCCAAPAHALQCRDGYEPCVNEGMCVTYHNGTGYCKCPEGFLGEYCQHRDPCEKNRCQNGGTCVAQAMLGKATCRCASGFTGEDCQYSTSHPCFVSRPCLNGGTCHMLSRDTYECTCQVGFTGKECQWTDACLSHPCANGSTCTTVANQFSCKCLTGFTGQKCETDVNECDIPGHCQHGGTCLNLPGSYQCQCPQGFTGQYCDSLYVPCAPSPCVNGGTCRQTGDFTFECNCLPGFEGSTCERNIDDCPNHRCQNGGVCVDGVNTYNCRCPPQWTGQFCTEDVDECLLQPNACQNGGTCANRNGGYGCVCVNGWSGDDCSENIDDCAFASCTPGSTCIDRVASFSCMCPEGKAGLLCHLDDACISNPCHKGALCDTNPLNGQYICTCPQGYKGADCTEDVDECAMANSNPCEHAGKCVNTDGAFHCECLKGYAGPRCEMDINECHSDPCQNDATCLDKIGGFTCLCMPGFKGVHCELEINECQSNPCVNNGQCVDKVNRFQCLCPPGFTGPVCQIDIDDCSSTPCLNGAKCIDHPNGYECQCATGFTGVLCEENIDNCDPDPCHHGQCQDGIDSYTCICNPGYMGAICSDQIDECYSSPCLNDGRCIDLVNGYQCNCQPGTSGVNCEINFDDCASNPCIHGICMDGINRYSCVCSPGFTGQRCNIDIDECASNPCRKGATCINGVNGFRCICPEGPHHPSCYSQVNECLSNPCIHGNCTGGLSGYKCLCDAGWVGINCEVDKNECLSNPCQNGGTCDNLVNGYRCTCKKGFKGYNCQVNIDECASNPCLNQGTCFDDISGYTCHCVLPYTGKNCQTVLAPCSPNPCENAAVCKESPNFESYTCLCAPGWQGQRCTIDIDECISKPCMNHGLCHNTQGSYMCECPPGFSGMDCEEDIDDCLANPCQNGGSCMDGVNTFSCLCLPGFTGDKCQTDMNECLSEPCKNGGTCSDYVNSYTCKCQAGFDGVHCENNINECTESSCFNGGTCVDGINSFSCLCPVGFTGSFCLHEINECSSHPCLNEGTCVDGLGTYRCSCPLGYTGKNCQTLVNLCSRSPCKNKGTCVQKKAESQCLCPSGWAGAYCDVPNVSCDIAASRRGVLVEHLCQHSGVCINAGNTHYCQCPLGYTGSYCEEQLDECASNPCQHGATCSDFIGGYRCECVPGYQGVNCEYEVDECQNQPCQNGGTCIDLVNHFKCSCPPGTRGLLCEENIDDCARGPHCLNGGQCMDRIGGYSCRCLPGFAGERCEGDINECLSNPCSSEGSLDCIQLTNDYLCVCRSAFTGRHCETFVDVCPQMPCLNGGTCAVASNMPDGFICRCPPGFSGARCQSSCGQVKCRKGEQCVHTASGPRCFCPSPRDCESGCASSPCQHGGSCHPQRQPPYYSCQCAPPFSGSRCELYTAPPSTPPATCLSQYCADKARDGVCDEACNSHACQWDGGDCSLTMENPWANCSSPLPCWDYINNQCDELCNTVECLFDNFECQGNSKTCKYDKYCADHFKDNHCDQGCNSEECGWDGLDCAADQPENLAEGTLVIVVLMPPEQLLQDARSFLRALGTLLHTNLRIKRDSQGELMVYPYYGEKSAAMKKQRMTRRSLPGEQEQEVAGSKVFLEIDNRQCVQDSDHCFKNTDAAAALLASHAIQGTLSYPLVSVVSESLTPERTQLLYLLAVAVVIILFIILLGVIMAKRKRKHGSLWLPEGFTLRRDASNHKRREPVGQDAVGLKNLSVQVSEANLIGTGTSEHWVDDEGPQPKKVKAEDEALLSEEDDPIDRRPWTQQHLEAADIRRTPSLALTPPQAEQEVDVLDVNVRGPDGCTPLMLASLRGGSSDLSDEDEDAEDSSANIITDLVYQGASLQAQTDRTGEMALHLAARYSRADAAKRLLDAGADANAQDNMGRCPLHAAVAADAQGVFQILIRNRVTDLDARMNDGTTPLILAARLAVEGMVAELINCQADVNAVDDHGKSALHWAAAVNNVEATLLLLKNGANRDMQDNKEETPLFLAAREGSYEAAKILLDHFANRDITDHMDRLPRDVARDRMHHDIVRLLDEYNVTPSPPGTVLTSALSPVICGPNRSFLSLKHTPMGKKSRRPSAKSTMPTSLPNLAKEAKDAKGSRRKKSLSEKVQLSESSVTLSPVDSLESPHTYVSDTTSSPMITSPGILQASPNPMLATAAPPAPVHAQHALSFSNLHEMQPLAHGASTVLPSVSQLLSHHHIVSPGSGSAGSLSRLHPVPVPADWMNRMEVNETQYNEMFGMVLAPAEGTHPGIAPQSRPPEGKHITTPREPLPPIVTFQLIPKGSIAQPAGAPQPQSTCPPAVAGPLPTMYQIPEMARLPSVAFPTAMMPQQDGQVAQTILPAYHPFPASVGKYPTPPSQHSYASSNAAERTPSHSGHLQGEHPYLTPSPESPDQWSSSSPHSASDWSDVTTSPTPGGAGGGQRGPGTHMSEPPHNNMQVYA
UniProt Q15738: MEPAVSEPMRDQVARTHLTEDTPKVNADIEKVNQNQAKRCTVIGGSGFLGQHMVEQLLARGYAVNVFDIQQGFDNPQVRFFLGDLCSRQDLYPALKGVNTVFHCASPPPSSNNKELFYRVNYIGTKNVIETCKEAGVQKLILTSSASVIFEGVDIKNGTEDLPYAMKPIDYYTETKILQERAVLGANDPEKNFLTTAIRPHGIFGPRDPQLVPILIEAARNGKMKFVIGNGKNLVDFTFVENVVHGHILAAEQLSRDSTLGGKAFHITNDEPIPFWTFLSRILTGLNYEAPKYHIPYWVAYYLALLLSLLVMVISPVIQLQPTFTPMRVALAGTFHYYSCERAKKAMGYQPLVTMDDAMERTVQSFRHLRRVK
UniProt Q96L73: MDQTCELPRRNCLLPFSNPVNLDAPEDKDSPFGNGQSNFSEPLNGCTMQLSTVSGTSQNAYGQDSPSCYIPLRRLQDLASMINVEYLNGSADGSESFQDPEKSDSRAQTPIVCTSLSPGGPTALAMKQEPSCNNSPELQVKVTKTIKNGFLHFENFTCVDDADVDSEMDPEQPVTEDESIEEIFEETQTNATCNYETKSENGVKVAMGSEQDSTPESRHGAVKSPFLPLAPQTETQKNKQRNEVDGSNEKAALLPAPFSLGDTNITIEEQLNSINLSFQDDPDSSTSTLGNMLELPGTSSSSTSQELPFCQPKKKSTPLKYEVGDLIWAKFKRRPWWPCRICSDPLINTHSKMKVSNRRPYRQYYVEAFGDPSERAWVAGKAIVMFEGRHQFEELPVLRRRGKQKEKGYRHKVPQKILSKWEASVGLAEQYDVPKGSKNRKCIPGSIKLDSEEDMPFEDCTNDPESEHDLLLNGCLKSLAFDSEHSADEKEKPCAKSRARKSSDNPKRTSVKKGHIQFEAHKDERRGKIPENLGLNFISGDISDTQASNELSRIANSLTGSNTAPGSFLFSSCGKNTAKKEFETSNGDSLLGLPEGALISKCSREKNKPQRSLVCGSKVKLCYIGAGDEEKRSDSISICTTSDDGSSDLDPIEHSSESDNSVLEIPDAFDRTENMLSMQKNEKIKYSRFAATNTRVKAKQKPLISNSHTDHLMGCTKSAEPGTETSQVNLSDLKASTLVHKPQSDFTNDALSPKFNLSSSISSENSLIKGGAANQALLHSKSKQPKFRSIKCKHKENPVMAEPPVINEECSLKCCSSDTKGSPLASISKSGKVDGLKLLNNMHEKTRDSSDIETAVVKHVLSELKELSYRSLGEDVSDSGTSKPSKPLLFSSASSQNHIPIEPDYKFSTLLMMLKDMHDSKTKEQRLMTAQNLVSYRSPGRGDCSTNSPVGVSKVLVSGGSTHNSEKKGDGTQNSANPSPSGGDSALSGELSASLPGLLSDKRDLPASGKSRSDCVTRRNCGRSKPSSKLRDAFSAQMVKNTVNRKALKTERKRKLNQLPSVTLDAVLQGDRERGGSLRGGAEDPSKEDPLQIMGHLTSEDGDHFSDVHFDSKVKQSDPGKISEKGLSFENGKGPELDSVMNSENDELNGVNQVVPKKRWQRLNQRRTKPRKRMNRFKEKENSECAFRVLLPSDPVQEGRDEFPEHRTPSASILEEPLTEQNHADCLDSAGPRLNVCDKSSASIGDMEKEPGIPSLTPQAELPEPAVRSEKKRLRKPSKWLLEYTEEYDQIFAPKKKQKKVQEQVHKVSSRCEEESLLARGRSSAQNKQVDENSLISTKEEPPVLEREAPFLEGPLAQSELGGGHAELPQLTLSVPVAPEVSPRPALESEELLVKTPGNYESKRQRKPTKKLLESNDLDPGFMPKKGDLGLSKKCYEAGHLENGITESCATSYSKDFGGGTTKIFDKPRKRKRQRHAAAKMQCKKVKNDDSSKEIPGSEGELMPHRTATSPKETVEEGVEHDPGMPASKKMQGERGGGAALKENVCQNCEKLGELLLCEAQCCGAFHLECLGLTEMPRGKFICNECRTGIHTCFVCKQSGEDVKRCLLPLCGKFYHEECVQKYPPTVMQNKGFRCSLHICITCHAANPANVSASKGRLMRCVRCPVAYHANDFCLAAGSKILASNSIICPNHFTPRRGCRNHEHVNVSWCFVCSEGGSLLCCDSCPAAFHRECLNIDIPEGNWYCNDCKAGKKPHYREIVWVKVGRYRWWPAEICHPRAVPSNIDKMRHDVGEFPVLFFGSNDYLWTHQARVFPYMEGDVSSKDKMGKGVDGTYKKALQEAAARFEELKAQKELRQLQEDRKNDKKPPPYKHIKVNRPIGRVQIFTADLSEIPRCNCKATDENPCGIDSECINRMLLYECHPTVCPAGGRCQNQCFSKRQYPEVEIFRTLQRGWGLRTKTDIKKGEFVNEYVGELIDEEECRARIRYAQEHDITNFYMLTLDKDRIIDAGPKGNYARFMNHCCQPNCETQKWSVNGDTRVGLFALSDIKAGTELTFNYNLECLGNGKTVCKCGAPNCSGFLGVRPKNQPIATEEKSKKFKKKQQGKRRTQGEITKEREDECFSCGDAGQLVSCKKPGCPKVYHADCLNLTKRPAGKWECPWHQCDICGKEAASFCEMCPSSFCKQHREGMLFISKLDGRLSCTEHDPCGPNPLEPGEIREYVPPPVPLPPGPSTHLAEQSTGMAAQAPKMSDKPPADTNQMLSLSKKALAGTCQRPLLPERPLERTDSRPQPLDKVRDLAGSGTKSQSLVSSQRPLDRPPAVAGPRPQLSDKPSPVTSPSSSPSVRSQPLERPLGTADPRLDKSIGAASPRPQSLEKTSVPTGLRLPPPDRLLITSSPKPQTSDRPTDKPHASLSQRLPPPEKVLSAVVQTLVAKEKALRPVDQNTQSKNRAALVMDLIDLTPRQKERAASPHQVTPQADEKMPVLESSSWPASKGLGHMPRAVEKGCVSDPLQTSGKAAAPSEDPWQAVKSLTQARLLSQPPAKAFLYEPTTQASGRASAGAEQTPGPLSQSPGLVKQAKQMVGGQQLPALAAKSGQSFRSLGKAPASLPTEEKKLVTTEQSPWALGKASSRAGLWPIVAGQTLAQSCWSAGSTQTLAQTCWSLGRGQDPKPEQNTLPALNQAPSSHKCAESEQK
UniProt Q86UT6, whole entry, looked up: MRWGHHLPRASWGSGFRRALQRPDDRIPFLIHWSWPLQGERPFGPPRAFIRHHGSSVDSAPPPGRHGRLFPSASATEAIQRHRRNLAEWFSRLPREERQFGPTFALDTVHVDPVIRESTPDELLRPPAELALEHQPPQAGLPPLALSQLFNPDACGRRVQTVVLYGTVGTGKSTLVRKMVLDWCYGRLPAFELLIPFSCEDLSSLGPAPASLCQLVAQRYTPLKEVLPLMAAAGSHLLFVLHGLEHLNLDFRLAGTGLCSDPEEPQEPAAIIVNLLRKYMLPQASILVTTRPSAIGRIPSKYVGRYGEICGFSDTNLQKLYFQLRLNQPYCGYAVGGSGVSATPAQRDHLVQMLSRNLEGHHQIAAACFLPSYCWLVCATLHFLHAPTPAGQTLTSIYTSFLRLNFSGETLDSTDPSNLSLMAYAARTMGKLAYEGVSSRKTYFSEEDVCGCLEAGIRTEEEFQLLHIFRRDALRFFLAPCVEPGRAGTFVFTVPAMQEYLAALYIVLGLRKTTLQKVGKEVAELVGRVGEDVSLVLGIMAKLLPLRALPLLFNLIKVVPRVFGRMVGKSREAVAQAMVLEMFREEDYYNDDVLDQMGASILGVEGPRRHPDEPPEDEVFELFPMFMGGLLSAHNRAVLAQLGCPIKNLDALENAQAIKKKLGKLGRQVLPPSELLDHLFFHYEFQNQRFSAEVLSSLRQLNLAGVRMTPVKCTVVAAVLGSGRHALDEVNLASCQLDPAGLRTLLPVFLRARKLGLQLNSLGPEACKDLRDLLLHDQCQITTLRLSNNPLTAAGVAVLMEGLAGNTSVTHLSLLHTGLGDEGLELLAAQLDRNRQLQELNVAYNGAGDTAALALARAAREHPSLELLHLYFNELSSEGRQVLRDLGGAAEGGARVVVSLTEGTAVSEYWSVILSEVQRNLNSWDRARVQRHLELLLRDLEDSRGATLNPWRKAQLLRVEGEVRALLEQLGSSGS

compound: Cc1cc(ccc1-c1ccccc1)C(=O)N1CCCN(CC1)C(=O)CCl [compound 10]; assay: probe-labelled cysteine peptide fold change vs DMSO (competition) (log2 fold change); higher = less target engagement (more negative = stronger competition); details: 10 µM; THP-1; incubation time: 4 h
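Also: competitive profiling in live THP-1 cells: cysteine peptides tagged with an iodoacetamide desthiobiotin (IA-DTB) probe, intensity after compound treatment relative to DMSO-treated cells.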

Row | Target | probe-labelled cysteine peptide fold change
1 | NPC2_P61916_42+47_EVNVSPCPTQPCQLSK (UniProt P61916) | -0.0371
2 | NOTCH2_Q04721_364_VASFSCMCPEGK (UniProt Q04721) | -0.00588
3 | NR2C2AP_Q86WQ0_76_RGCLEGSQGTQALHK (UniProt Q86WQ0) | 0.0312
4 | NSD3_Q9BZ95_495_CNMSPVVK (UniProt Q9BZ95) | -0.109
5 | NSD2_O96028_44_ECSVFLSK (UniProt O96028) | -0.306
6 | NMI_Q13287_230_EYPLYINQTCHR (UniProt Q13287) | -0.0738
7 | NRDC_O43847_674_AFDCPETEYPVK (UniProt O43847) | -0.047
8 | NSUN2_Q08J23_502_DGVCGPPPSK (UniProt Q08J23) | -0.219
9 | NOL6_Q9H6R4_1034_QAVDSPAASFCR (UniProt Q9H6R4) | 0.0206
10 | NSDHL_Q15738_86_FFLGDLCSR (UniProt Q15738) | -0.104
11 | NPLOC4_Q8TAT6_355_HPNMCR (UniProt Q8TAT6) | 0.0218
12 | NTHL1_P78549_118_DAPVDHLGTEHCYDSSAPPK (UniProt P78549) | -0.282
13 | NOL6_Q9H6R4_739_LDKPCPAYVEPMTVVCHLEGSGQWPQDAEAVQR (UniProt Q9H6R4) | -0.0229
14 | NSD1_Q96L73_2077_CGAPNCSGFLGVRPK (UniProt Q96L73) | -0.169
15 | NLRX1_Q86UT6_767_LGLQLNSLGPEACK (UniProt Q86UT6) | 0.00501
16 | NOTCH2_Q04721_264_NIDDCPNHR (UniProt Q04721) | 0.0708
17 | NSD1_Q96L73_2072_CGAPNCSGFLGVRPK (UniProt Q96L73) | -0.0183

Looked up above:
NLRX1_Q86UT6_767_LGLQLNSLGPEACK (UniProt Q86UT6) | probe-labelled cysteine peptide fold change: 0.00501
NOL6_Q9H6R4_1034_QAVDSPAASFCR (UniProt Q9H6R4) | probe-labelled cysteine peptide fold change: 0.0206
